Numbering of substitutions follows the chain as printed. These are yes or no findings as the source states them, for the method shown. Binding seen in cells or lysates may run through a third protein. Some results given as binding are weak or reduced against the parent protein; the word gives no strength.
What was measured:
Test in all cases: co-IP; co-purification: 10xHis-3xFLAG-MIDEAS constructs co-expressed with DNTTIP1 and HDAC1 in HEK293F, lysate bound to anti-FLAG resin, washed, released by TEV protease, Superdex-200 gel filtration; HDAC1 in the complex shown by its deacetylase activity
[1] = biological target: T1, MIDEAS 628-887 Y654S T655A (SAP) (human) (UniProt Q6PJG2)
T1 sequence: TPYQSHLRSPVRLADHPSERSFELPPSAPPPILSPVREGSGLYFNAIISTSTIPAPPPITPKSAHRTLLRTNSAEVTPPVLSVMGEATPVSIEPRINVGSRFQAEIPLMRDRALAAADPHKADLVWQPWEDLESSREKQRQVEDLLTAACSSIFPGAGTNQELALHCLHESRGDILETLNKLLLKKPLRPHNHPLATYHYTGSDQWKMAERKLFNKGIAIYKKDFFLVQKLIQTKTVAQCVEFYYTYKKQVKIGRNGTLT

Protein sequences, listed by entry. Tags and fused reporters are not part of them.
UniProt Q13547: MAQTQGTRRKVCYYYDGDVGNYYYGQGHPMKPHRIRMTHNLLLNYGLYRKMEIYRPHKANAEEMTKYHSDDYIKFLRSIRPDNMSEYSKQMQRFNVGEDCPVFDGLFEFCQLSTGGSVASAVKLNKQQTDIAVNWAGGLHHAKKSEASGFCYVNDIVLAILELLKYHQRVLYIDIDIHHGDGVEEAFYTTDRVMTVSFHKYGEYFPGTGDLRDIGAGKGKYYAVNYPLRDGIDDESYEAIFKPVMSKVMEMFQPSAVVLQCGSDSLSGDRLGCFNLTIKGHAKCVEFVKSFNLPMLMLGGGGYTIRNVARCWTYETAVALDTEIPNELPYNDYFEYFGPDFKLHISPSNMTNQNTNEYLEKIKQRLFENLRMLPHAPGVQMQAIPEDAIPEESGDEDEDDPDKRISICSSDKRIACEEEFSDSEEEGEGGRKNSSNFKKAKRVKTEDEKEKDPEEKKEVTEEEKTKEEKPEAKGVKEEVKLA

[2] = biological target: T2, MIDEAS 628-887 Y654S T655D (SDP) (human) (UniProt Q6PJG2)
T2 sequence: T1 sequence with A28D

[3] = biological target: T3, MIDEAS 717-887 (WT) (human) (UniProt Q6PJG2)
T3 sequence: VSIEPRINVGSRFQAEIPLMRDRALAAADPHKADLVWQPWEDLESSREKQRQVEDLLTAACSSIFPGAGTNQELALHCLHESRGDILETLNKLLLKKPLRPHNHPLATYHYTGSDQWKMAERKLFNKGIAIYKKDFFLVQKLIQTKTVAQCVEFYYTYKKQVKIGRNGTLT

Measured: binding

HDAC1 (full-length) (from UniProt Q13547 1-482) (enzyme)
binds: all assays above

Source: PMC12647621, “A de novo missense variant in MIDEAS results in increased deacetylase activity of the MiDAC HDAC complex causing a neurodevelopmental syndrome” (Nature Communications, 2025)
